These are yes or no findings as the source states them, for the method shown. Some results given as binding are weak or reduced against the parent protein; the word gives no strength.
Key:
[1] = target: VAMP7(1–190)-C21S/C56V (rat) (UniProt Q9JHW5); assay: co-purification of coexpressed proteins; coexpressed in E. coli BL21(DE3), 12 h at 25 °C; lysate on Ni-NTA agarose, washed, eluted with 300 mM imidazole, then Superdex 200 gel filtration; monitored by SDS-PAGE, mass spectrometry, CD and MALS
VAMP7(119–190) (rat) = VAMP7(119–190) (rat) (UniProt Q9JHW5); assay: as above

By UniProt entry, the sequences of proteins in these tests, tags left out. Where a name states a change or a piece, a line headed by the entry shows the natural chain unless it says otherwise. Residues count along the entry.
UniProt Q9JHW5, 119-190: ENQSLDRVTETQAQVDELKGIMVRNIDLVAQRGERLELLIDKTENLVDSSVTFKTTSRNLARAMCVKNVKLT
UniProt Q9JHW5, whole entry, looked up, stated change not applied: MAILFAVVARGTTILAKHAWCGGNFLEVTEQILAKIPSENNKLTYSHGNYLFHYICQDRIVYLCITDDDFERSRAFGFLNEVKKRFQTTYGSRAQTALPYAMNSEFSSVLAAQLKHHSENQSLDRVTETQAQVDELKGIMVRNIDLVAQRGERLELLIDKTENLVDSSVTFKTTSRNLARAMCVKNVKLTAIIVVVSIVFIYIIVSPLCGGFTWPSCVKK
UniProt P32851, whole entry, looked up, stated change not applied: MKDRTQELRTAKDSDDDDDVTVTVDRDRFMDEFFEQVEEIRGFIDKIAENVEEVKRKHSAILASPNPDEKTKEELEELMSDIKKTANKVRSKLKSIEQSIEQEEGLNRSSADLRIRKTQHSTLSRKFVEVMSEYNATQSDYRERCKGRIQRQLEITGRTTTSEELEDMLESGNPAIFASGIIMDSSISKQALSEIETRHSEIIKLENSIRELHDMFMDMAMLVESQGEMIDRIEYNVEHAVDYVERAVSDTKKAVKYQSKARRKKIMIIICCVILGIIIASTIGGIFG

Row | Substance | binding [1] | binding (VAMP7(119–190) (rat))
1 | syntaxin1A(1–265)-C145S/S249C/K253C (from UniProt P32851 1-265) (domain or fragment) | binds | –
2 | syntaxin1A(191–265)-C145S/S249C/K253C (from UniProt P32851 191-265) (domain or fragment) | – | binds

— publication PMC3750193, “Disassembly of All SNARE Complexes by N-Ethylmaleimide-sensitive Factor (NSF) Is Initiated by a Conserved 1:1 Interaction between α-Soluble NSF Attachment Protein (SNAP) and SNARE Complex*^([image sbox.jpg])” (The Journal of Biological Chemistry, 2013)
